No constants are given. Whether binding was seen depends on the method and setting. Some results given as binding are weak or reduced against the parent protein; the word gives no strength.
Columns and labels:
[1] = target: In vitro translated sentrin-1 (human); assay: precipitation on glutathione-Sepharose beads, autoradiography
[2] = target: In vitro translated sentrin-1 (human); assay: precipitation on glutathione-Sepharose beads, autoradiography (FIG. 9)
[3] = target: TNFR1 wt (death domain construct, yeast two-hybrid) (UniProt P19438); assay: yeast two-hybrid
[4] = target: TNFR1 wt (death domain construct, yeast two-hybrid) (UniProt P19438); assay: yeast two-hybrid (FIG. 1A)

Amino acid sequences for entries named in this document (tags omitted). Residues count along the entry.
UniProt P19438, residues 355-455: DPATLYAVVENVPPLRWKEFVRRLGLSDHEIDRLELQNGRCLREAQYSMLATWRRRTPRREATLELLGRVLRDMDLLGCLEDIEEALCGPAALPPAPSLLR
UniProt P63279: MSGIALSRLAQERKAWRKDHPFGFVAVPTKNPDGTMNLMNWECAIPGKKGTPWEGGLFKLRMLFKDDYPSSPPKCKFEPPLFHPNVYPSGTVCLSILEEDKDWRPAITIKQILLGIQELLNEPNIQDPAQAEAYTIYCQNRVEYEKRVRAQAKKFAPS

| Substance | binding [1] | binding [2] | binding [3] | binding [4] |
| --- | --- | --- | --- | --- |
| GST-Ubc9 fusion protein (from UniProt P63279 1-158) (enzyme) | binds | binds |  |  |
| Sentrin-1 (SEQ ID NO:2) fused to the Gal4 activation-domain (from UniProt A7WLH8 1-101) |  |  | binds | binds |

From patent publication US7179650
